This test in a line: qHTS Assay for Modulators of Lamin A Splicing. Particulars: HeLa LMNA splicing GFP/RFP minigene ratio, 48 h. The procedure, abridged: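 S3 HeLa cells stably expressing lamin A-EGFP splicing minigene plus DsRed2, 600 cells/well, 48 h compound exposure at 37C. Laser-scanning cytometry; analysed as GFP (500-530 nm)/RFP (575-640 nm) total intensity ratio; 0.5% DMSO vehicle.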
Background: Quantitative high-throughput screening tests each substance at several concentrations.

[1] abbreviates: measured here: GFP splicing reporter channel.
Setting [2] is: measured here: RFP viability control channel.

The record followed here is PubChem BioAssay AID1487 (National Center for Advancing Translational Sciences (NCATS), 2009).

The structures appear in SMILES notation. The list shows a part of the results. These are further read-outs of the screen, such as a control signal, another cell line or another target. No call is given for them. Compounds called inactive in the main read-out are mostly missing here. Potencies come from curve fits of mixed quality, noted in brackets.

For `Brc1ccc(/C=N/N2CCN(C3c4ccccc4-c4ccccc43)CC2)s1`, the AC50 (in general, the midpoint of the concentration-response curve, whichever way the signal moves) reads like this: under setting [1], 22.4 µM [falling, single point]; under setting [2], 20 µM [falling, single point].
For `CC(=O)N(C[C@@H](C)C(=O)O)c1c(I)cc(I)c(N)c1I`, the AC50 by setting is: under setting [1], 2.24 µM [falling, single point]; under setting [2], 2.51 µM [falling, single point].
With `Cc1[nH]c2ccc(F)cc2c1CCN(Cc1ccncc1)C(=S)Nc1ccccc1`, the AC50 under setting [1] is 0.0224 µM [rising, full curve, poor fit].
In the case of `O=[N+]([O-])c1ccc(O)c(/C=N/Nc2ccccn2)c1`, the AC50 under setting [2] is 1.41 µM [rising, partial curve].
Take `O=C(Nc1cccc(Br)c1)c1ccn[nH]1`: the AC50 reads like this: under setting [1], 11.2 µM [falling, single point]; under setting [2], 11.2 µM [falling, partial curve, poor fit].
On to `O=C(Nc1ccccc1)N1CCCN(Cc2c(F)cccc2Cl)CC1`, for which the AC50 under setting [2] is 39.8 µM [falling, partial curve, poor fit].
Turning to `O=C(NCCc1ccc2c(c1)OCCO2)c1cc(F)cc(F)c1`, under setting [2], the AC50 is 14.1 µM [rising, partial curve].
Take `CC(=O)c1ccccc1NS(=O)(=O)c1c(C)nn(-c2ccccc2)c1C`: the AC50 under setting [1] was 8.91 µM [rising, partial curve, poor fit] and the AC50 under setting [2] was 15.8 µM [rising, partial curve].
With `c1ccc(CSc2nnc(C3CCNCC3)o2)cc1`, the AC50 under setting [1] was 0.00794 µM [rising, full curve, poor fit].
For `Cc1cc2c(cc(C(=O)OC(C(=O)NCC3CCCO3)C(C)C)n2C)o1` (configuration not stated), under setting [2], the AC50 is 0.00316 µM [falling, full curve, poor fit].
As for `CCN1CCCC1CN(Cc1cc2ccc(C)cc2[nH]c1=O)C(=S)Nc1cccc(OC)c1` (configuration not stated), under setting [2], the AC50 is 11.2 µM [rising, single point].
Consider `CCOc1ccc(Cc2nccc3cc(OCC)c(OCC)cc23)cc1OCC`, for which the AC50 is, setting by setting: under setting [1], 5.01 µM [falling, partial curve]; under setting [2], 0.002 µM [falling, full curve, poor fit].
As for `CCc1c(C(=O)NCc2ccccc2Cl)[nH]c(C)c1C(C)=O`, the AC50 under setting [1] was 15.8 µM [rising, single point].
For the compound `Cn1cc(C(=O)CCl)c2ccccc21`, the AC50 is 35.5 µM [falling, single point] under setting [1] and 35.5 µM [falling, single point] under setting [2].
Take `Cc1ccc2c(c1)C1CN(C)CCC1N2C(=O)c1ccc(Cl)c(S(=O)(=O)N2CCOCC2)c1` (configuration not stated): the AC50 under setting [1] is 0.0398 µM [falling, full curve, poor fit] and the AC50 under setting [2] is 0.158 µM [falling, full curve, poor fit].
